# In all, about 33,000 sequences were measured (“E-score (-0.5 to 0.5)”: median about -0.0014, highest 2% from about 0.25 on). The list shows a part of the results.
# Molecular target: T1, Cad1 (UniProt P24813)
# T1 sequence: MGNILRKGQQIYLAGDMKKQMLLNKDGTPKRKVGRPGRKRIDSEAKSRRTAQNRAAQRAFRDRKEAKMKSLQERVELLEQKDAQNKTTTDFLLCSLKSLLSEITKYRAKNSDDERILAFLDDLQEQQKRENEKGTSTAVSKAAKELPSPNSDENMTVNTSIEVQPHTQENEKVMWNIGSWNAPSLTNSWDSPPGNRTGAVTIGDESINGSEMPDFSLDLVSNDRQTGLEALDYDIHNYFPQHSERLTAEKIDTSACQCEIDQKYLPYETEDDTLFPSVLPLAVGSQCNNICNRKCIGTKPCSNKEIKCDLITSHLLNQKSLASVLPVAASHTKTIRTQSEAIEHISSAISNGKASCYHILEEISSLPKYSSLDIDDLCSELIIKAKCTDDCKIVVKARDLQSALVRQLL
# Experiment: PBM E-score (8-mer binding enrichment) (E-score (-0.5 to 0.5)); higher = stronger / more preferred TF binding
# Details: protein concentration: 100 nM; construct: GST-full length
# Description: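 Universal 'all 10-mer' protein binding microarrays (Agilent AMADID 015681) probed with GST-tagged S. cerevisiae TFs (full-length or DBD) made by in vitro transcription/translation (PURExpress), about 100-200 nM. Bound TF was detected with fluorescent anti-GST. Each ungapped 8-mer (which stands for itself and its reverse complement) is scored by the PBM enrichment score (E-score), a modified Wilcoxon-Mann-Whitney statistic from -0.5 to +0.5, computed with the Universal PBM Analysis Suite. Scale: above 0.35 generally sequence-specific binding.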
row,Sequence,PBM E-score
1,AGTCGTTG,-0.116
2,ATACGCGC,0.215
3,ATGTCGCA,0.187
4,AGGTGTTC,0.0664
5,CCTACCGC,-0.0896
6,AGCTATTG,-0.0347
7,CAGGGGGG,-0.484
8,TCTATCCA,0.00059
9,TAGACACA,-0.0984
10,AGTTGTCA,0.126
11,ACTTATCA,0.116
12,ATAAGGGG,-0.0559
13,GCCTCAAC,-0.0513
14,TAATGCCA,0.113
15,ACTTCCTG,-0.00649
16,GAATCAAA,0.0378
17,ATACTTAC,0.0308
18,CGATGCAG,-0.11
19,AGCCTGGA,-0.147
20,AATCCCTA,0.12
21,AGGGCTAG,-0.208
22,ACTATCCT,-0.0796
23,GAACGAAC,0.151
24,AAAGTCCA,0.0746
25,ATATAGAA,0.00309

row,Sequence,PBM E-score
1,GTAGACTA,-0.0684
2,CTCAACTA,0.0449
3,AGGGTCAG,-0.283
4,AGACAGAC,0.131
5,TAATAGAA,0.182
6,AGTCGAGG,0.00339
7,ACTTACCA,-0.0399
8,CCTTGGGA,-0.00782
9,CGGGCTAA,-0.158
10,ACCCCGAC,-0.18
11,CTAGGAAA,-0.177
12,TGCATTAA,0.156
13,TCTTACCA,-0.131
14,AGGGACGA,-0.0363
15,CAAGTAGA,-0.186
16,CCGGCAAC,0.00677
17,GCGGCGGA,0.112
18,ATGACTGG,-0.193
19,CCGTCCCG,-0.0572
20,GAGCTATC,-0.139
21,CCTTATGC,-0.0125
22,GAGATGGC,0.19
23,GTCCAGAA,0.0196
24,AAAATGGC,-0.0252
25,CGTCACCC,-0.15

# Nothing new here: an excerpt of the list.
row,Sequence,PBM E-score
19,CCGTCCCG,-0.0572
20,GAGCTATC,-0.139

# The results go on:

row,Sequence,PBM E-score
1,CATAGCGA,0.051
2,GTCCCTGA,-0.17
3,AGGTGGGG,-0.0628
4,CACAGTTC,0.0926
5,CACTTTCG,0.122
6,CCATTTAC,-0.0295
7,ATTTAGCC,0.0331
8,AAGGGATT,-0.0286
9,ACTGAGGA,-0.223
10,ACCCAGCG,-0.168
11,AAAGAGGT,0.00147
12,ACCACTAT,0.0199
13,ATTTACGG,0.117
14,GATACAAC,0.147
15,AGCAGATA,-0.0464
16,CTTGCATA,0.0652
17,GACTCAAC,0.0863
18,ATTTTGAA,0.15
19,CACCGTCG,-0.0093
20,TGCATGAA,0.201
21,CCACTAAC,0.105
22,AGAAGCAG,-0.0954
23,CATAGTGG,-0.0395
24,TATCGCGA,0.259
25,ACCAACTG,-0.0938

# A second format for some results above:
row	Sequence	PBM E-score
8	AAGGGATT	-0.0286
9	ACTGAGGA	-0.223
10	ACCCAGCG	-0.168
11	AAAGAGGT	0.00147
12	ACCACTAT	0.0199

# Remaining list, next part

row,Sequence,PBM E-score
1,AGATCGTC,-0.114
2,CTCTGGTA,0.00844
3,AGCCGTGG,-0.135
4,ACAAGGTG,-0.00821
5,GACGAGGA,0.121
6,GACATTAC,0.171
7,AGGCCGAA,-0.0603
8,GGCGATAA,-0.0679
9,CACATCCC,-0.0533
10,ATGATGAA,0.216
11,ACACAGGG,0.0433
12,GGGCTTGA,-0.109
13,CCAATTGC,-0.114
14,GCCGAACA,0.0432
15,TTCAACAA,0.124
16,CCAACTAG,0.0684
17,TGCTGTAA,-0.0294
18,CATGGCAA,-0.0412
19,AACCTGAA,-0.192
20,AAATTATT,0.181
21,AAGTAGAC,0.00908
22,CCCGAATA,0.0801
23,GATAGAGC,0.0529
24,CGTGGGAA,-0.12
25,GTATTAAC,-0.0392

# Exported with tabs: entries from further up
row	Sequence	PBM E-score
16	CCAACTAG	0.0684
17	TGCTGTAA	-0.0294

# (next part)

row,Sequence,PBM E-score
1,AAAGTTCA,0.0815
2,ACTTTACG,-0.0406
3,TGCCAAAA,0.068
4,CGGCACGC,-0.0478
5,ACCTTGCT,-0.119
6,ATATGGAT,0.212
7,TAGCGGAA,-0.149
8,ATCCACTG,-0.127
9,ACAGCTAG,-0.0773
10,CTGTCTTC,-0.0664
11,CAAAGCAC,-0.138
12,ACTTCGGG,-0.00844
13,AAAGTCCC,-0.0531
14,GGGGATCA,-0.181
15,CAACAGCC,0.0927
16,CCGGTACA,0.0785
17,ATGTCATC,0.0733
18,CACGAAGA,0.0416
19,ACAGGTGC,-0.178
20,ACTGATGG,0.0288
21,AGTGCCAG,-0.154
22,ACGGGCGA,-0.108
23,ACGTAGTA,0.119
24,GACGAATA,0.177
25,CGTACAGA,-0.00856

row,Sequence,PBM E-score
1,ATCTTCAA,0.0779
2,AATATGAG,0.0594
3,AAGGAATG,-0.0319
4,ACCTCAGC,-0.00107
5,CTTGCCGA,9e-05
6,ATAACCTA,-0.082
7,CCGCACCG,0.00335
8,ATTAGCTC,-0.0317
9,ACACGCTC,0.119
10,GGGGCGCA,-0.139
11,ACATTGAA,0.168
12,ATCTAGCC,-0.0552
13,CAGACTCG,-0.105
14,GGGCCTGA,-0.228
15,CACTCGCC,0.0273
16,AGGGCATG,-0.0681
17,AGCCTACA,-0.0553
18,ACCGTGAA,0.0213
19,AGGTATAT,0.126
20,ACAAGCCT,0.0178
21,GGTAGCTA,-0.0538
22,TAGTGACA,0.144
23,AGATAAGG,-0.165
24,AGGGGATC,-0.178
25,ATTGTCAG,0.306

row,Sequence,PBM E-score
1,AGCGACCC,-0.18
2,GTCTGCAA,-0.0949
3,AGCCGCAG,-0.121
4,GAGAGACA,-0.222
5,CGTAATCC,0.191
6,ACTGTACC,-0.0695
7,ACGCTTAG,0.0453
8,AATCGTCT,0.00483
9,AGACTACA,-0.0813
10,CAGGTTCG,-0.195
11,AGTGTATG,-0.0227
12,AGGCGTCA,-0.163
13,TTAAGTAA,0.168
14,CTAAGGAC,0.074
15,ATTTATGC,-0.0649
16,GACAAAAC,0.0998
17,CGGGGACC,-0.0966
18,AAGCATTC,0.0284
19,ATTCCGAG,0.164
20,AATACGTC,0.0601
21,CTTACGCA,0.0493
22,CGGAGGCC,-0.096

# Source: the supplement of paper PMC3334620
